# Experimental data taken from patent US5108900A, “Monoclonal antibodies to synthetic pyrethroids and method for detecting the same” (Regents of the University of California, priority 1989, dated 1992).
# Experiment: Recovery of 14C-labeled permethrin through the extraction procedure in ground beef samples
# Details: ground beef spiked with 500 ng/g permethrin
compound,measurement,setting,value
"CC1(C)C(C=C(Cl)Cl)C1C(=O)OCc1cccc(Oc2ccccc2)c1 (mixture of isomers) [Permethrin, 3-phenoxybenzyl (lRS),cis,trans-3(2,2-dichlorovinyl)-2,2-dimethylcyclopropanecarboxylate]",total radiolabel recovered in the final benzene fraction,,62% +/-2.9
same,recovery in the acetonitrile extract (after fat removal),radiolabel,72% +/-1.7
same,recovery in the hexane fraction,radiolabel,65.5% +/-3.5
